B1: TGFBRAP1 (protein, UniProt Q8WUH2 1-860, looked up)
Transforming growth …: MMSIKAFTLVSAVERELLMGDKERVNIECVECCGRDLYVGTNDCFVYHFLLEERPVPAGPATFTATKQLQRHLGFKKPVNELRAASALNRLLVLCDNSISLVNMLNLEPVPSGARIKGAATFALNENPVSGDPFCVEVCIISVKRRTIQMFLVYEDRVQIVKEVSTAEQPLAVAVDGHFLCLALTTQYIIHNYSTGVSQDLFPYCSEERPPIVKRIGRQEFLLAGPGGLGMFATVAGISQRAPVHWSENVIGAAVSFPYVIALDDEFITVHSMLDQQQKQTLPFKEGHILQDFEGRVIVATSKGVYILVPLPLEKQIQDLLASRRVEEALVLAKGARRNIPKEKFQVMYRRILQQAGFIQFAQLQFLEAKELFRSGQLDVRELISLYPFLLPTSSSFTRSHPPLHEYADLNQLTQGDQEKMAKCKRFLMSYLNEVRSTEVANGYKEDIDTALLKLYAEADHDSLLDLLVTENFCLLTDSAAWLEKHKKYFALGLLYHYNNQDAAAVQLWVNIVNGDVQDSTRSDLYEYIVDFLTYCLDEELVWAYADWVLQKSEEVGVQVFTKRPLDEQQKNSFNPDDIINCLKKYPKALVKYLEHLVIDKRLQKEEYHTHLAVLYLEEVLLQRASASGKGAEATETQAKLRRLLQKSDLYRVHFLLERLQGAGLPMESAILHGKLGEHEKALHILVHELQDFAAAEDYCLWCSEGRDPPHRQQLFHTLLAIYLHAGPTAHELAVAAVDLLNRHATEFDAAQVLQMLPDTWSVQLLCPFLMGAMRDSIHARRTMQVALGLARSENLIYTYDKMKLKGSSIQLSDKKLCQICQNPFCEPVFVRYPNGGLVHTHCAASRHTNPSSSSPGTRT
B2: CCDC115 (protein, UniProt Q96NT0 1-180, looked up)
Vacuolar ATPase assembly …: MAALDLRAELDSLVLQLLGDLEELEGKRTVLNARVEEGWLSLAKARYAMGAKSVGPLQYASHMEPQVCLHASEAQEGLQKFKVVRAGVHAPEEVGPREAGLRRRKGPTKTPEPESSEAPQDPLNWFGILVPHSLRQAQASFRDGLQLAADIASLQNRIDWGRSQLRGLQEKLKQLEPGAA
B3: EDEM2 (protein, UniProt Q9BV94 22-578, looked up)
ER degradation-enhancing …: APGPDGSAPDPAHYRERVKAMFYHAYDSYLENAFPFDELRPLTCDGHDTWGSFSLTLIDALDTLLILGNVSEFQRVVEVLQDSVDFDIDVNASVFETNIRVVGGLLSAHLLSKKAGVEVEAGWPCSGPLLRMAEEAARKLLPAFQTPTGMPYGTVNLLHGVNPGETPVTCTAGIGTFIVEFATLSSLTGDPVFEDVARVALMRLWESRSDIGLVGNHIDVLTGKWVAQDAGIGAGVDSYFEYLVKGAILLQDKKLMAMFLEYNKAIRNYTRFDDWYLWVQMYKGTVSMPVFQSLEAYWPGLQSLIGDIDNAMRTFLNYYTVWKQFGGLPEFYNIPQGYTVEKREGYPLRPELIESAMYLYRATGDPTLLELGRDAVESIEKISKVECGFATIKDLRDHKLDNRMESFFLAETVKYLYLLFDPTNFIHNNGSTFDAVITPYGECILGAGGYIFNTEAHPIDPAALHCCQRLKEEQWEVEDLMREFYSLKRSRSKFQKNTVSSGPWEPPARPGTLFSPENHDQARERKPAKQKVPLLSCPSQPFTSKLALLGQVFLDSS
B4: ACBD6 (protein, UniProt Q9BR61 1-282, looked up)
Acyl-CoA-binding …: MASSFLPAGAITGDSGGELSSGDDSGEVEFPHSPEIEETSCLAELFEKAAAHLQGLIQVASREQLLYLYARYKQVKVGNCNTPKPSFFDFEGKQKWEAWKALGDSSPSQAMQEYIAVVKKLDPGWNPQIPEKKGKEANTGFGGPVISSLYHEETIREEDKNIFDYCRENNIDHITKAIKSKNVDVNVKDEEGRALLHWACDRGHKELVTVLLQHRADINCQDNEGQTALHYASACEFLDIVELLLQSGADPTLRDQDGCLPEEVTGCKTVSLVLQRHTTGKA
B5: NUP85 (protein, UniProt Q9BW27 1-656, looked up)
Nuclear pore complex protein …: MEELDGEPTVTLIPGVNSKKNQMYFDWGPGEMLVCETSFNKKEKSEMVPSCPFIYIIRKDVDVYSQILRKLFNESHGIFLGLQRIDEELTGKSRKSQLVRVSKNYRSVIRACMEEMHQVAIAAKDPANGRQFSSQVSILSAMELIWNLCEILFIEVAPAGPLLLHLLDWVRLHVCEVDSLSADVLGSENPSKHDSFWNLVTILVLQGRLDEARQMLSKEADASPASAGICRIMGDLMRTMPILSPGNTQTLTELELKWQHWHEECERYLQDSTFATSPHLESLLKIMLGDEAALLEQKELLSNWYHFLVTRLLYSNPTVKPIDLHYYAQSSLDLFLGGESSPEPLDNILLAAFEFDIHQVIKECSIALSNWWFVAHLTDLLDHCKLLQSHNLYFGSNMREFLLLEYASGLFAHPSLWQLGVDYFDYCPELGRVSLELHIERIPLNTEQKALKVLRICEQRQMTEQVRSICKILAMKAVRNNRLGSALSWSIRAKDAAFATLVSDRFLRDYCERGCFSDLDLIDNLGPAMMLSDRLTFLGKYREFHRMYGEKRFADAASLLLSLMTSRIAPRSFWMTLLTDALPLLEQKQVIFSAEQTYELMRCLEDLTSRRPVHGESDTEQLQDDDIETTKVEMLRLSLARNLARAIIREGSLEGS
B6: ACCS (protein, UniProt Q96QU6 1-501, looked up)
1-aminocyclopropane-1-carboxyl …: MFTLPQKDFRAPTTCLGPTCMQDLGSSHGEDLEGECSRKLDQKLPELRGVGDPAMISSDTSYLSSRGRMIKWFWDSAEEGYRTYHMDEYDEDKNPSGIINLGTSENKLCFDLLSWRLSQRDMQRVEPSLLQYADWRGHLFLREEVAKFLSFYCKSPVPLRPENVVVLNGGASLFSALATVLCEAGEAFLIPTPYYGAITQHVCLYGNIRLAYVYLDSEVTGLDTRPFQLTVEKLEMALREAHSEGVKVKGLILISPQNPLGDVYSPEELQEYLVFAKRHRLHVIVDEVYMLSVFEKSVGYRSVLSLERLPDPQRTHVMWATSKDFGMSGLRFGTLYTENQDVATAVASLCRYHGLSGLVQYQMAQLLRDRDWINQVYLPENHARLKAAHTYVSEELRALGIPFLSRGAGFFIWVDLRKYLPKGTFEEEMLLWRRFLDNKVLLSFGKAFECKEPGWFRFVFSDQVHRLCLGMQRVQQVLAGKSQVAEDPRPSQSQEPSDQRR
B7: PHACTR3 (protein, UniProt Q96KR7 1-559, looked up)
Phosphatase and actin …: MAASEDGSGCLVSRGRSQSDPSVLTDSSATSSADAGENPDEMDQTPPARPEYLVSGIRTPPVRRNSKLATLGRIFKPWKWRKKKNEKLKQTTSALEKKMAGRQGREELIKKGLLEMMEQDAESKTCNPDGGPRSVQSEPPTPKSETLTSEDAQPGSPLATGTDQVSLDKPLSSAAHLDDAAKMPSASSGEEADAGSLLPTTNELSQALAGADSLDSPPRPLERSVGQLPSPPLLPTPPPKASSKTTKNVTGQATLFQASSMKSADPSLRGQLSTPTGSPHLTTVHRPLPPSRVIEELHRALATKHRQDSFQGRESKGSPKKRLDVRLSRTSSVERGKEREEAWSFDGALENKRTAAKESEENKENLIINSELKDDLLLYQDEEALNDSIISGTLPRKCKKELLAVKLRNRPSKQELEDRNIFPRRTDEERQEIRQQIEMKLSKRLSQRPAVEELERRNILKQRNDQTEQEERREIKQRLTRKLNQRPTVDELRDRKILIRFSDYVEVAKAQDYDRRADKPWTRLSAADKAAIRKELNEYKSNEMEVHASSKHLTRFHRP
B8: ANKS1A (protein, UniProt Q92625 2-1134, looked up)
Ankyrin repeat and SAM …: GKEQELLEAARTGHLPAVEKLLSGKRLSSGFGGGGGGGSGGGGGGSGGGGGGLGSSSHPLSSLLSMWRGPNVNCVDSTGYTPLHHAALNGHKDVVEVLLRNDALTNVADSKGCYPLHLAAWKGDAQIVRLLIHQGPSHTRVNEQNNDNETALHCAAQYGHTEVVKVLLEELTDPTMRNNKFETPLDLAALYGRLEVVKMLLNAHPNLLSCNTKKHTPLHLAARNGHKAVVQVLLDAGMDSNYQTEMGSALHEAALFGKTDVVQILLAAGTDVNIKDNHGLTALDTVRELPSQKSQQIAALIEDHMTGKRSTKEVDKTPPPQPPLISSMDSISQKSQGDVEKAVTELIIDFDANAEEEGPYEALYNAISCHSLDSMASGRSSDQDSTNKEAEAAGVKPAGVRPRERPPPPAKPPPDEEEEDHIDKKYFPLTASEVLSMRPRIHGSAAREEDEHPYELLLTAETKKVVLVDGKTKDHRRSSSSRSQDSAEGQDGQVPEQFSGLLHGSSPVCEVGQDPFQLLCTAGQSHPDGSPQQGACHKASMQLEETGVHAPGASQPSALDQSKRVGYLTGLPTTNSRSHPETLTHTASPHPGGAEEGDRSGARSRAPPTSKPKAELKLSRSLSKSDSDLLTCSPTEDATMGSRSESLSNCSIGKKRLEKSPSFASEWDEIEKIMSSIGEGIDFSQERQKISGLRTLEQSVGEWLESIGLQQYESKLLLNGFDDVHFLGSNVMEEQDLRDIGISDPQHRRKLLQAARSLPKVKALGYDGNSPPSVPSWLDSLGLQDYVHSFLSSGYSSIDTVKNLWELELVNVLKVQLLGHRKRIIASLADRPYEEPPQKPPRFSQLRCQDLLSQTSSPLSQNDSCTGRSADLLLPPGDTGRRRHDSLHDPAAPSRAERFRIQEEHREAKLTLRPPSLAAPYAPVQSWQHQPEKLIFESCGYEANYLGSMLIKDLRGTESTQDACAKMRKSTEHMKKIPTIILSITYKGVKFIDASNKNVIAEHEIRNISCAAQDPEDLCTFAYITKDLQTSHHYCHVFSTVDVNLTYEIILTLGQAFEVAYQLALQAQKSRATGASAAEMIETKSSKPVPKPRVGVRKSALEPPDMDQDAQSHASVSWVVDPKPDSKRSLSTN
B9: SIKE1 (protein, UniProt Q9BRV8 1-207, looked up)
Suppressor of IKBKE 1: MSCTIEKILTDAKTLLERLREHDAAAESLVDQSAALHRRVAAMREAGTALPDQYQEDASDMKDMSKYKPHILLSQENTQIRDLQQENRELWISLEEHQDALELIMSKYRKQMLQLMVAKKAVDAEPVLKAHQSHSAEIESQIDRICEMGEVMRKAVQVDDDQFCKIQEKLAQLELENKELRELLSISSESLQARKENSMDTASQAIK
B10: SPATC1L (protein, UniProt Q9H0A9 1-340, looked up)
Speriolin-like protein: MAEGGELMSRLLSENADLKKQVRLLKENQMLRRLLSQSCQEGGGHDLLPPRAHAYPEAGSPGSGVPDFGRFTSVADTPSQLQTSSLEDLLCSHAPLSSEDDTSPGCAAPSQAPFKAFLSPPEPHSHRGTDRKLSPLLSPLQDSLVDKTLLEPREMVRPKKVCFSESSLPTGDRTRRSYYLNEIQSFAGAEKDARVVGEIAFQLDRRILAYVFPGVTRLYGFTVANIPEKIEQTSTKSLDGSVDERKLRELTQRYLALSARLEKLGYSRDVHPAFSEFLINTYGILKQRPDLRANPLHSSPAALRKLVIDVVPPKFLGDSLLLLNCLCELSKEDGKPLFAW

What follows are molecules tested on primary AML samples (assay: HLA class I ligandome analysis (W6/32 immunoaffinity purification, LC-MS/MS) of primary AML samples). Settings: HLA class I ligandome, AML patients (n=15); count for the HLA ligand (LiTAP) or, on protein lines, for the source protein (LiTAA).
Parameters: species or system human

| Molecule | Number of positive AMLs |
| --- | --- |
| B1 | 5 |

Same assay, conditions: representation frequency of the source protein (LiTAA) in AML patients (n=15)

| Molecule | Number of positive AMLs [rep. frequency] |
| --- | --- |
| B1 | [33.3%] |

Same assay, conditions: source protein (LiTAA); AML patients (n=15)

| Molecule | Number of positive AMLs |
| --- | --- |
| B2 | 3 |
| B3 | 3 |
| B4 | 3 |
| B5 | 3 |
| B6 | 3 |
| B7 | 3 |
| B8 | 3 |
| B9 | 3 |
| B10 | 3 |

Same assay, conditions: source protein (LiTAA); representation frequency in AML patients (n=15)

| Molecule | rep. frequency |
| --- | --- |
| B2 | [20.0%] |
| B3 | [20.0%] |
| B4 | [20.0%] |
| B5 | [20.0%] |
| B6 | [20.0%] |
| B7 | [20.0%] |
| B8 | [20.0%] |
| B9 | [20.0%] |
| B10 | [20.0%] |
